# Library screening results

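Whole-cell assay for inhibitors of Mycobacterium tuberculosis growth, labelled Cornell in the record; the read-out is not stated. The concentration is filed as 10 mM, unlikely as a test dose, so the dose is not known. The record gives no direction; compounds strong in two other growth screens of this library score well above the rest, so higher reads as stronger inhibition. About 53,000 compounds were tested under these conditions; 1.7% (about 900) showed 50% or more at least once.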

Each number is a percent effect as filed. The controls that fix the scale are not given in the record; negative values are as filed. This is an unselected part of the compounds tested.

SMILES | effect
O=C(c1cc(Br)ccc1-n1cnnn1)N1CCCC1 | -29.12%
CSCCc1c(-c2ccccc2)ncn1CCNc1cccnc1 | 23.46%
Cc1cccc(CN2C[C@@H](CN3CCCN(C)CC3)C[C@H](CO)C2)n1 | -48.56%
COC(=O)NCCC(=O)NCC1(c2cccc(Cl)c2)CC1 | 6.87%
CN(C)CC1CSCCCN1S(=O)(=O)c1ccc(C(F)(F)F)cc1 (stereo not drawn) | 14.6%
COc1ccc2c3c1CN(C(C)=O)CC3=CC(C)(C)CO2 | 9.21%
CCCOc1cc(CNC(=O)Nc2ccc(C)cc2)ccn1 | 22.51%
CC(C)(C)c1ncc(C(=O)NCCNS(C)(=O)=O)s1 | 14.28%
CC(C)N(C)S(=O)(=O)c1ccc2c(c1)CCN(C(=O)c1cccnn1)C2 | 3.046%
[H][C@]12CN(CCCC(=O)c3ccccc3)CC[C@@]1(O)CCN(S(C)(=O)=O)C2 | 2.425%
CCN(CC)CCCNC(=O)C(C)n1cc(Br)cn1 (stereo not drawn) | -3.643%
O=C(O)C(F)(F)F.[H][C@@]12CN(CC3CC3)CCO[C@]1([H])CN(C(=O)c1cocn1)C2 | 47.84%
O=S(=O)(NCC1(c2cccs2)CCCC1)c1cccnc1 | 22.69%
CNC(=O)CS(=O)(=O)C1CCN(S(=O)(=O)c2ccccc2Cl)CC1 | -25.93%
O=c1n(Cc2ccc(F)cc2)nc2ncccn12 | -16.62%
O=C(NCc1ccc(-c2ccn[nH]2)cc1)N1CCC(N2CCCC2)C1 (stereo not drawn) | 13.18%
Cc1nc[nH]c1CN1CCN(C2CCOCC2)CC(C(N)=O)C1 (stereo not drawn) | -5.814%
CCc1c(C)nn(C)c1NC(=O)N1CCCOC(Cn2cccn2)C1 (stereo not drawn) | -1.306%
Cc1ccc(O)c(CNc2cccc(CN3CCN(C)CC3)c2)n1 | -32.4%
CCNC(=O)[C@@H]1CCCN1[C@@H](C(=O)NC)c1ccccc1OC.Cl | -3.71%
Cc1cn(CC(=O)NC2CCN(S(C)(=O)=O)CC2)c2ccccc12 | 9.499%
CC(C)CCNC(=O)c1c(-n2cnnn2)sc2c1CCCC2 | -6.963%
COC(C)(C)C(=O)N1Cc2cnc(C(C)(C)C)nc2C1 | -8.44%
CCCN(CCc1ccccc1)C(=O)c1ccccc1NCC(=O)O | 19.5%
CC(C)(CCS(C)(=O)=O)CNc1ccc2ccc(F)cc2n1 | -1.231%
CCc1[nH]ncc1C(=O)N1CCOC(c2nc(C)n[nH]2)C1 (stereo not drawn) | 6.664%
COC(=O)c1cccc(C(=O)N2CCN(C(=O)N(C)C)CC2(C)C)c1 | -14.69%
Cc1nn(C)cc1S(=O)(=O)NCC(c1ccccc1Cl)N1CCCC1 (stereo not drawn) | 1.975%
COCCN1CCC(CNc2nc3ccccc3o2)CC1 | 21.6%
O=C(NCC1CCC1)c1cccc(CN2CCS(=O)(=O)CC2)c1 | 31.16%
O=C1N(Cc2ccc(F)c(F)c2)CCCC12CCN(C1CCCCC1)C2 (stereo not drawn) | 35.3%
O=C(NCC1(O)CCSC1)c1ccn(-c2ccccc2F)n1 (stereo not drawn) | -51.49%
c1cnn(-c2ccc(CCNC3CCN(C4CC4)C3)cc2)c1 (stereo not drawn) | 2.618%
Cn1ccnc1CNc1ccc(F)c(N2CCCS2(=O)=O)c1 | 22.71%
CS(=O)(=O)N1CCCC12CCN(Cc1ccoc1)CC2 | -4.226%
CCc1ccc(CN(Cc2ccccc2)CC(C)CO)nc1 (stereo not drawn) | 46.77%
Cc1cc(N[C@H]2CCCN(Cc3ccccc3)C2)n2nc(C)cc2n1 | -6.549%
COc1ccncc1NC(=O)C1(c2ccccc2)CC1 | 18.5%
CC(C)c1ncc2c(n1)CN(Cc1nc(-c3ccco3)no1)CC2 | 30.64%
O=C(NCCCn1ccnc1)c1cccnc1OCC(F)(F)F | -0.9236%
Cc1ccc(-c2nc(CNC3CCc4ncnn4C3)co2)c(C)c1 (stereo not drawn) | 17.3%
N#Cc1ccnc(N2CCN(C3CCOC3=O)CC2)c1 (stereo not drawn) | -46.04%
CN(CC(=O)N1CCCC1c1cnn(C)c1)c1ccc(Cl)cn1 (stereo not drawn) | -1.136%
Cc1cccc(CN2CCC(c3nnsc3S(C)(=O)=O)CC2)n1 | -48.91%
CC1(C(=O)N2CCOCC2)CN(Cc2ccccn2)CCO1 (stereo not drawn) | -5.608%
OC1CCCOC12CCN(Cc1nnc(-c3cccnc3)o1)CC2 (stereo not drawn) | -19.12%
O=C(CCS(=O)(=O)C1CCCC1)NCCc1ccc2c(c1)OCCO2 | -11.99%
O=C(c1ccc[nH]1)N1CCCn2c(CN3CCCCC3)nnc2C1 | -10.39%

Source: ChEMBL document CHEMBL3988442, “University of Dundee, Small-Polar-MMV Screening Library” (2021).